Results from PubChem BioAssay AID330 (DTP/NCI, 2004).
The list does not hold the whole screen: it gathers tests that were run many times, whatever their T/C, doses with no T/C, and many T/C values between a quarter and a half above the control. Other doses and runs of a compound stand elsewhere. T/C is the treated group as % of the vehicle group. Some entries give survivors of the animals treated and no T/C: the source holds a T/C of zero for them, seemingly a mark for toxic or unscored doses. Some survivor counts are full or nearly so, which does not show that the dose was tolerated: the source hardly ever lists a survival T/C far under the control, and the zero likely stands for such cases as well. Survivors were counted at the toxicity check, usually on the fifth day, unless a day is given; later deaths do not show. Schedules are NCI's codes, read here as Q, the interval in days (D) or hours (H), X, the number of doses. Some doses were run more than once; the results are listed from low to high. For survival time, the PubChem record calls one and a half times the control and up active, and a quarter to a half above the control has no call in these data; cut-offs in other NCI protocols can differ. Some T/C values are followed by the survivors on the day toxicity was checked, most often the fifth; without a count, all were alive then.

System: P388 leukemia ip, CD2F1 mice, survival T/C
Assay: NCI In Vivo Anticancer Drug Screen. Data for tumor model P388 Leukemia (intraperitoneal) in CD2F1 (CDF1) mice
Details: T/C endpoint: median survival time, higher T/C = longer survival
[1] = dose: 25.0 mg/kg/injection, schedule: Q01DX009 (ip), vehicle: saline
[2] = dose: 200.0 mg/kg/injection, schedule: Q04DX003 (ip), vehicle: saline sonified
[3] = dose: 50.0 mg/kg/injection, schedule: Q01DX009 (ip), vehicle: saline
[4] = dose: 100.0 mg/kg/injection, schedule: Q01DX009 (ip), vehicle: saline
[5] = dose: 200.0 mg/kg/injection, schedule: Q01DX009 (ip), vehicle: saline
[6] = dose: 100.0 mg/kg/injection, schedule: Q01DX001 (ip), vehicle: saline
[7] = dose: 200.0 mg/kg/injection, schedule: Q01DX005 (ip), vehicle: saline with Tween-80
[8] = dose: 200.0 mg/kg/injection, schedule: Q01DX005 (ip), vehicle: Klucel (hydroxypropylcellulose) (HPC)
[9] = dose: 12.5 mg/kg/injection, schedule: Q01DX005 (ip), vehicle: DMSO

Q: Which results are given for `N=C(N)c1ccc(OCCCOc2ccc(C(=N)N)cc2Br)c(Br)c1`?
A: T/C (dose: 6.25 mg/kg/injection, schedule: Q01DX009 (ip), vehicle: saline): 140 % of control; T/C (dose: 16.5 mg/kg/injection, schedule: Q01DX009 (ip), vehicle: saline sonified): 133 % of control; T/C (dose: 25.0 mg/kg/injection, schedule: Q01DX009 (ip), vehicle: saline sonified): 142 % of control; T/C [1]: 136 % of control; T/C (dose: 37.5 mg/kg/injection, schedule: Q01DX009 (ip), vehicle: saline sonified): 142 % of control [5 of 6 alive]; T/C (dose: 50.0 mg/kg/injection, schedule: Q04DX003 (ip), vehicle: saline sonified): 131 % of control [5 of 6 alive]; survivor count (dose: 75.0 mg/kg/injection, schedule: Q04DX003 (ip), vehicle: saline): 4 of 6; survivor count (dose: 100.0 mg/kg/injection, schedule: Q04DX003 (ip), vehicle: saline sonified): 1 of 6; survivor count [2]: 0 of 6

Q: Which survivor count (dose: 6.25 mg/kg/injection, schedule: Q01DX009 (ip), vehicle: suspension in saline) does the source give for `CC(C)[CH2][Sn]1([CH2]C(C)C)[O]CCNCC[O]1` here?
A: 6 of 6

Q: And the survivor count (dose: 12.5 mg/kg/injection, schedule: Q01DX009 (ip), vehicle: suspension in saline)?
A: 3 of 6

Q: And the survivor count (dose: 25.0 mg/kg/injection, schedule: Q01DX009 (ip), vehicle: suspension in saline)?
A: 0 of 6

Q: And the survivor count [3]?
A: 0 of 6

Q: What about the survivor count [4] of the same compound?
A: 0 of 6

Q: What about the survivor count [5] of the same compound?
A: 0 of 6

Q: With `NNC(=O)COc1ccc(Br)cc1Br` as the compound, how does the survivor count (dose: 240.0 mg/kg/injection, schedule: Q01DX005 (ip), vehicle: saline with Tween-80) read?
A: 4 of 6

Q: How did the survivor count (dose: 200.0 mg/kg/injection, schedule: Q01DX009 (ip), vehicle: Klucel (hydroxypropylcellulose) (HPC)) turn out when `N#CCCCN1C(=O)c2ccccc2C1=O` was run?
A: 0 of 6

Q: What about the survivor count (dose: 400.0 mg/kg/injection, schedule: Q01DX009 (ip), vehicle: Klucel (hydroxypropylcellulose) (HPC)) of the same compound?
A: 0 of 6

Q: How did the survivor count [6] turn out when `CN(C)CCCC1(c2cccc(Cl)c2)SC(C)(C)c2ccccc21` (centres undefined) was run?
A: 2 of 5

Q: What does the source list for `c1c[nH]c(C23CC4CC(CC(C4)C2)C3)n1`?
A: survivor count (dose: 100.0 mg/kg/injection, schedule: Q01DX005 (ip), vehicle: saline with Tween-80): 3 of 5; survivor count [7]: 0 of 5

Q: Which survivor count [7] does the source give for `CCCCn1c(C)nc2ccccc21` here?
A: 0 of 5

Q: Which results are given for `CNC(=O)OCC[N+](C)(C)C`?
A: survivor count (dose: 12.5 mg/kg/injection, schedule: Q01DX009 (ip), vehicle: saline): 2 of 6 and 5 of 6; survivor count [1]: 0 of 6; survivor count [3]: 0 of 6

Q: Which survivor count [5] does the source give for `NNc1cc2c(nn1)CCN(C(=O)c1ccccc1)C2` here?
A: 2 of 6

Q: For `CC([NH-])C[NH-].O=[N+]([O-])O.O=[N+]([O-])O.[Pt+2]` (centres undefined), which T/C (dose: 3.12 mg/kg/injection, schedule: Q04DX002 (ip), vehicle: saline) is on record?
A: 127 and 130 % of control

Q: And the T/C (dose: 6.25 mg/kg/injection, schedule: Q04DX002 (ip), vehicle: saline)?
A: 147 % of control

Q: For `[Br][Ga]([Br])[Br]`, which survivor count [4] is on record?
A: 5 of 6

Q: And the survivor count [2]?
A: 6 of 6

Q: What about the survivor count (dose: 400.0 mg/kg/injection, schedule: Q04DX003 (ip), vehicle: saline sonified) of the same compound?
A: 6 of 6

Q: How did the T/C (dose: 50.0 mg/kg/injection, schedule: Q01DX005 (ip), vehicle: saline) turn out when `CC(=O)CC(C)=O.CC(=O)CC(C)=O.[Cl][Sn][c]1ccccc1` was run?
A: 128 % of control

Q: What about the T/C (dose: 100.0 mg/kg/injection, schedule: Q01DX005 (ip), vehicle: saline) of the same compound?
A: 137 % of control

Q: With `CCN(CC)Cc1ccc(N)cc1O` as the compound, how does the survivor count (dose: 400.0 mg/kg/injection, schedule: Q01DX009 (ip), vehicle: saline) read?
A: 0 of 6 and 1 of 6

Q: How did the survivor count (dose: 50.0 mg/kg/injection, schedule: Q01DX001 (ip), vehicle: saline) turn out when `COc1cc2cc(-c3ccccc3)[n+](C)cc2cc1OC` was run?
A: 0 of 6

Q: What about the survivor count [6] of the same compound?
A: 0 of 6

Q: What about the survivor count (dose: 200.0 mg/kg/injection, schedule: Q01DX001 (ip), vehicle: saline) of the same compound?
A: 0 of 6

Q: What about the survivor count (dose: 400.0 mg/kg/injection, schedule: Q01DX001 (ip), vehicle: saline) of the same compound?
A: 0 of 6

Q: `Nc1nc(N)c(Cc2ccccn2)cc1Cc1ccccn1` was tested. Which survivor count [8] did it give?
A: 1 of 6

Q: With `CC(=O)NCC(O)CNC(C)=O` as the compound, how does the survivor count [3] read?
A: 6 of 6

Q: And the survivor count [4]?
A: 6 of 6

Q: And the survivor count [5]?
A: 6 of 6

Q: With `C=C(Cn1cc(F)c(=O)n(CC(=C)C(=O)OCC)c1=O)C(=O)OCC` as the compound, how does the survivor count (dose: 360.0 mg/kg/injection, schedule: Q04DX002 (ip), vehicle: distilled water + Tween-80) read?
A: 5 of 5

Q: `O=c1ccnc(Sc2ccc([N+](=O)[O-])cc2[N+](=O)[O-])[nH]1` was tested. Which survivor count (dose: 400.0 mg/kg/injection, schedule: Q04DX003 (ip), vehicle: saline with Tween-80) did it give?
A: 3 of 6

Q: How did the survivor count (dose: 100.0 mg/kg/injection, schedule: Q01DX009 (ip), vehicle: saline with Tween-80) turn out when `CN(C)CCOc1ccc2c(c1)CC/C(=C\c1ncc([N+](=O)[O-])n1C)C2=O` was run?
A: 0 of 6

Q: What about the survivor count (dose: 200.0 mg/kg/injection, schedule: Q01DX009 (ip), vehicle: saline with Tween-80) of the same compound?
A: 0 of 6

Q: With `Nc1cc(S(=O)(=O)c2ccc(O)c(N)c2)ccc1O` as the compound, how does the survivor count (dose: 600.0 mg/kg/injection, schedule: Q01DX009 (ip), vehicle: saline) read?
A: 2 of 6

Q: What does the source list for `C=Cc1cc(OC)c2c(c1)c(=O)oc1c2cc(OC)c2c(O)ccc(C3OC(C)C(O)C(C)(O)C3O)c21` (centres undefined)?
A: T/C (dose: 6.25 mg/kg/injection, schedule: Q01DX005 (ip), vehicle: DMSO): 129 and 135 % of control; T/C [9]: 133 % of control; survivor count [9]: 6 of 6; survivor count (dose: 25.0 mg/kg/injection, schedule: Q01DX005 (ip), vehicle: DMSO): 6 of 6; survivor count (dose: 50.0 mg/kg/injection, schedule: Q01DX005 (ip), vehicle: DMSO): 6 of 6; survivor count (dose: 100.0 mg/kg/injection, schedule: Q01DX005 (ip), vehicle: DMSO): 3 of 6; survivor count (dose: 200.0 mg/kg/injection, schedule: Q01DX005 (ip), vehicle: DMSO): 0 of 6

Q: `O=NNc1ccc(Br)cn1` was tested. Which T/C (dose: 3.0 mg/kg/injection, schedule: Q01DX008 (ip), vehicle: water) did it give?
A: 125 % of control

Q: And the T/C (dose: 3.12 mg/kg/injection, schedule: Q01DX009 (ip), vehicle: water)?
A: 128 % of control

Q: And the T/C (dose: 6.25 mg/kg/injection, schedule: Q01DX009 (ip), vehicle: water)?
A: 145 % of control

Q: What about the survivor count (dose: 25.0 mg/kg/injection, schedule: Q01DX009 (ip), vehicle: water) of the same compound?
A: 6 of 6

Q: For `CCCCCC(CN(C)C)C(=O)/C=C/c1ccc(F)cc1` (centres undefined), which survivor count [7] is on record?
A: 0 of 6

Q: Which survivor count [4] does the source give for `CC(C)NCCO` here?
A: 5 of 6

Q: And the survivor count [5]?
A: 2 of 6

Q: How did the survivor count [8] turn out when `CC1(c2ccccc2)CCCCC/C1=N/Nc1ccc([N+](=O)[O-])cc1[N+](=O)[O-]` (centres undefined) was run?
A: 6 of 6

Q: Which results are given for `CN=C(N)N/N=C/c1ccc2c(c1)Cc1ccccc1-2`?
A: T/C (dose: 12.5 mg/kg/injection, schedule: Q04DX002 (ip), vehicle: saline with Tween-80): 126 % of control; T/C (dose: 25.0 mg/kg/injection, schedule: Q04DX002 (ip), vehicle: saline with Tween-80): 126 and 129 % of control; T/C (dose: 50.0 mg/kg/injection, schedule: Q04DX002 (ip), vehicle: saline with Tween-80): 125 % of control [5 of 6 alive]; T/C (dose: 100.0 mg/kg/injection, schedule: Q04DX002 (ip), vehicle: saline with Tween-80): 132 % of control [5 of 6 alive]; survivor count (dose: 200.0 mg/kg/injection, schedule: Q04DX002 (ip), vehicle: saline with Tween-80): 0 of 6 and 1 of 6

Q: Which T/C (dose: 200.0 mg/kg/injection, schedule: Q04DX003 (ip), vehicle: saline) does the source give for `O=C(O)CCNCCC(=O)O` here?
A: 129 % of control

Q: And the T/C (dose: 400.0 mg/kg/injection, schedule: Q04DX003 (ip), vehicle: saline)?
A: 125 % of control
